Measured values published in patent US20230374068A1, “COMPOSITIONS AND METHODS FOR TREATING A DISEASE” (RAMOT AT TEL AVIV UNIVERSITY LTD., priority 2021, published 2023).
Results are given in words; binding and its absence hold for the method and conditions named. In cells and extracts the contact can be indirect. Some binding calls cover weakened binding; strength is not graded here. Tags and fused reporters may be left off the sequences shown.

Legend:
[1] = biological target: T1, endogenous Rab12 of RBL cells (rat, UniProt P35284 49-291, limits assumed); assay: GST pulldown from RBL cell lysates, anti-Rab12 immunoblot
T1 construct: Total Rab12 pulled down from cell lysates (blot reprobed with anti-Rab12)
T1 sequence (looked up): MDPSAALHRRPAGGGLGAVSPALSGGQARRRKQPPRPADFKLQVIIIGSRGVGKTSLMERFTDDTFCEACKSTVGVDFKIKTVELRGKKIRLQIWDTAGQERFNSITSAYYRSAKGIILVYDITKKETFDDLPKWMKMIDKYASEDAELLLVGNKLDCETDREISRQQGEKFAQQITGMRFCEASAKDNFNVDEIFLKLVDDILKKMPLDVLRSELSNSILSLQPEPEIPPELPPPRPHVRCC

[2] = biological target: T2, GFP-RILP-L1 (mouse RILP-like 1 in pEGFP-C1) (mouse) (UniProt Q9JJC6); assay: reciprocal co-immunoprecipitation, IP anti-T7, blot anti-GFP
T2 sequence (looked up): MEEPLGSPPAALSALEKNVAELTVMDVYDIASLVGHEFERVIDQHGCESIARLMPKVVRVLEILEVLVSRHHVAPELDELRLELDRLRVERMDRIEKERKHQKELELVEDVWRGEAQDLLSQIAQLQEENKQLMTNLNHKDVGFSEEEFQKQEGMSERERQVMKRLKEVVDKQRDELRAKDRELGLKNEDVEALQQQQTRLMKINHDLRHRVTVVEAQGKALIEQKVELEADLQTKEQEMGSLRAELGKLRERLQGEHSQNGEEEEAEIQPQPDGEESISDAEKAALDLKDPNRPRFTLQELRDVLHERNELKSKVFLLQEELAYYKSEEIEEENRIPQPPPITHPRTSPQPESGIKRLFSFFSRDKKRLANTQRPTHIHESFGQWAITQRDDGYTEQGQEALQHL

[3] = biological target: T3, GFP-RILP-L2 (mouse RILP-like 2 in pEGFP-C1) (mouse) (UniProt Q99LE1); assay: as above
T3 sequence (looked up): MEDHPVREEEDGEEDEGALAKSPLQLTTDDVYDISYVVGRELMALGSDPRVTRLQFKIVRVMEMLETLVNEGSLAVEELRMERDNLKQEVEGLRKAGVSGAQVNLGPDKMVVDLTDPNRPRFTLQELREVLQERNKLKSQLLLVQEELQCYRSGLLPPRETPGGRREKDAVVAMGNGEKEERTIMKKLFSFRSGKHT

B1: GST-RILP (pGEX-4T-3-RILP) (protein, mouse, UniProt Q5ND29 1-369, looked up, not shown: a dimerising Fc or GST)
chain: MEPRRAAPRLPSQASSSVGAGSAAELVYHLAGALGTELQGLARRFGPDAAAGLVPLVVRALELLEKAAVGPAPDSLQVSAQQAEVELRRLREENQRLRQELGSGPQEERALLRQLKEVTDRQRDELRAHNRDLQRRSQETEALQEQLQRLLLINSELRHKLAAVQTQLRAAQDRERERQIAQDGSSQLAKEQSLEPDAATSDDPVDTQKQPGNLPEAVQCGFSREELKQILQERNELKANVFLLKEELAYFQRELLTDHRVPGLLLEAMKVAVKKQRRKIKAKMLGTPEEAESSEDEDGSWLLLSNDKEDVPLVPESRIQNFFGLWYRGETEAPEAETSNPASSSLQKGEETPQQPHLQPVNSPPAPNS
For B1, the binding [1] was “binds”.

B2: GST-RILP-L1 (pGEX-4T-3-RILP-L1) (other, mouse, UniProt Q9JJC6 1-406, looked up)
chain: MEEPLGSPPAALSALEKNVAELTVMDVYDIASLVGHEFERVIDQHGCESIARLMPKVVRVLEILEVLVSRHHVAPELDELRLELDRLRVERMDRIEKERKHQKELELVEDVWRGEAQDLLSQIAQLQEENKQLMTNLNHKDVGFSEEEFQKQEGMSERERQVMKRLKEVVDKQRDELRAKDRELGLKNEDVEALQQQQTRLMKINHDLRHRVTVVEAQGKALIEQKVELEADLQTKEQEMGSLRAELGKLRERLQGEHSQNGEEEEAEIQPQPDGEESISDAEKAALDLKDPNRPRFTLQELRDVLHERNELKSKVFLLQEELAYYKSEEIEEENRIPQPPPITHPRTSPQPESGIKRLFSFFSRDKKRLANTQRPTHIHESFGQWAITQRDDGYTEQGQEALQHL
notes: Immobilized on glutathione agarose beads; not shown: glutathione S-transferase (GST) encoded by the pGEX-4T-3 vector
For B2, the binding [1] was “binds”.

B3: GST-RILP-L2 (pGEX-4T-3-RILP-L2) (other, mouse, UniProt Q99LE1 1-197, looked up)
chain: MEDHPVREEEDGEEDEGALAKSPLQLTTDDVYDISYVVGRELMALGSDPRVTRLQFKIVRVMEMLETLVNEGSLAVEELRMERDNLKQEVEGLRKAGVSGAQVNLGPDKMVVDLTDPNRPRFTLQELREVLQERNKLKSQLLLVQEELQCYRSGLLPPRETPGGRREKDAVVAMGNGEKEERTIMKKLFSFRSGKHT
notes: as for B2
In the case of B3, the binding [1] is reported as “binds”.

B4: T7-RILP-L1 (pEF-T7-RILP-L1) (protein, mouse, UniProt Q9JJC6 1-406, looked up, not shown: small tags and cut ends)
chain: MEEPLGSPPAALSALEKNVAELTVMDVYDIASLVGHEFERVIDQHGCESIARLMPKVVRVLEILEVLVSRHHVAPELDELRLELDRLRVERMDRIEKERKHQKELELVEDVWRGEAQDLLSQIAQLQEENKQLMTNLNHKDVGFSEEEFQKQEGMSERERQVMKRLKEVVDKQRDELRAKDRELGLKNEDVEALQQQQTRLMKINHDLRHRVTVVEAQGKALIEQKVELEADLQTKEQEMGSLRAELGKLRERLQGEHSQNGEEEEAEIQPQPDGEESISDAEKAALDLKDPNRPRFTLQELRDVLHERNELKSKVFLLQEELAYYKSEEIEEENRIPQPPPITHPRTSPQPESGIKRLFSFFSRDKKRLANTQRPTHIHESFGQWAITQRDDGYTEQGQEALQHL
For B4, the binding [2] was “binds”.

B5: T7-RILP-L2 (pEF-T7-RILP-L2) (other, mouse, UniProt Q99LE1 1-197, looked up, not shown: small tags and cut ends)
chain: MEDHPVREEEDGEEDEGALAKSPLQLTTDDVYDISYVVGRELMALGSDPRVTRLQFKIVRVMEMLETLVNEGSLAVEELRMERDNLKQEVEGLRKAGVSGAQVNLGPDKMVVDLTDPNRPRFTLQELREVLQERNKLKSQLLLVQEELQCYRSGLLPPRETPGGRREKDAVVAMGNGEKEERTIMKKLFSFRSGKHT
notes: The pEF-T7 plasmid was 'prepared as previously described'; also called T7-tagged RILP-L2; RILP-like 2
B5 was tested, and the binding [3] was “binds”.
